Assay results: article PMC12116771
The exact form of at least one protein or probe is not confirmed. Weaker means in comparison with the reference protein, sequence or condition of that experiment.

The chains behind the UniProt entries cited, without tags or fusion partners. Where a name states a change or a piece, a line headed by the entry shows the natural chain unless it says otherwise.
UniProt P45978: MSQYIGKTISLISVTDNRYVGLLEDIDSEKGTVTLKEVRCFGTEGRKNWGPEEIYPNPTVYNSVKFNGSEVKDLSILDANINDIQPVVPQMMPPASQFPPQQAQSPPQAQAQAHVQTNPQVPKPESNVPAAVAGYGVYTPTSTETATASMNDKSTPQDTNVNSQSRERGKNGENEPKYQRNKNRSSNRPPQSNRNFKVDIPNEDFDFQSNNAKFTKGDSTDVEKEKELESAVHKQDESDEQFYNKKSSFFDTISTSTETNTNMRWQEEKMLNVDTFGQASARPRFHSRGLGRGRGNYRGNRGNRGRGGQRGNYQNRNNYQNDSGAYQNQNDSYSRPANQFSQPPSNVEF

Biological target: Scd6 (His-Scd6-FLAG, unmethylated) (Saccharomyces cerevisiae) (UniProt P45978)
Assay: EMSA
Settings: 1.7 uM RNA, protein 0.26-1.1 uM, EMSA: 10 mM Tris pH 8, 50 mM NaCl, 0.05% NP-40, 6% glycerol, 1 mM DTT, 2 ug/ml BSA, 0.5 ug/ml tRNA, 30 C 30 min, 2.5% agarose, 1x MOPS, EtBr, recombinant protein, protein details: N-term His, label: none (EtBr stain), probe letters rebuilt from the primers and the genome

Sequence	binding result (shift seen, significantly less than 5'UTR)	binding result (more binding than 3'UTR)
GGGAAAAUUAAACAACGGUGAAAUCAUAGUCAUCGAUUAGUAGCACUUUCAUGCCUGACUACGUCAACUAUUGGAGGCGGUUUAUAAUUUUUAUUUAAAGCACAUAGGAGUUAAUUUUAUUUUACUGGUAGGGUUUGUAUACGAACUACAUGGAAAUGUGGAUGGUGUGUUAUUAUAGCUUAAUGAAUAUUCUUUUUCUAUAC [SRS2 3'UTR 200-mer RNA]	binds more weakly	–
GGGGGCAGAAUAGGGCUCCACUCCGUGCCCAAUUUGACCUGGAUUUUCCACCAGUUUACAUGAAUUUCCCCGCUUACUUUUUGGAAGCACCUUCUUUAGUUCGGGAACUACUAUAUUUGAAGGCAUUGCCAAACCUAUUCACAUUUAAUGACUUUGCUAUCCUAGUAAGACAACGAAGACAAAUUAAAAGGAUCGAAAGUGCA [SRS2 5'UTR 200-mer RNA]	–	binds
